# Results reported in PubChem BioAssay AID1347423 (Functional Genomics Laboratory (NCATS/FGL), 2020).
# About 210 (0.4%) of roughly 52,000 sequences were called active.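 Rule for the calls: active = gene whose silencing raises cell survival under the drug, median off-target-corrected z-score across its silencing RNAs 2 or more; inactive = the rest.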 The list shows a part of the results.
# Assay: Resistance to Poly (ADP-Ribose) Polymerase inhibitor: Gene Identification via Genome-wide siRNA Screen
# Settings: mouse BRCA2 R2336H ES cells, olaparib, CellTiter-Glo viability; stronger effect = higher value
# Outline: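 Mouse BRCA2 R2336H ES cells were reverse-transfected with siRNA (20 nM final), treated at 48 h with 500 nM olaparib, and read by CellTiter-Glo after 72 h. Scores: MAD-based z per siRNA, median per gene, seed off-target correction.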
row,Sequence,z-score
1,GGAGAGAAUGGACCAUCUCTT against Rnase10,inactive: -0.163
2,GGUCAAAGAAGGAAAACACTT against Foxn1,inactive: -0.92
3,CCCAGGACCAUUGUUUGCATT against Olfr745,inactive: -0.185
4,GGUUCAUCGUUUCAAGUUUTT against 4932415G16Rik,inactive: 0.789
5,CCGUAACCCAGAAAAUGUATT against BC014699,inactive: 0.824
6,GGAAUGCUUAAAGCUUUAATT against Clasp2,inactive: -2.3
7,GGACAGCAGUAAAUAUACUTT against Coq3,inactive: -0.0464
8,GGGCAUAUUCACGAUCAAUTT against Fut2,inactive: -2.04
9,GGUUUAUUUGAUGUCCACATT against Rab2b,inactive: 1.43
10,GGGCUUGAAGGAAUUGACUTT against Cyp4f14,inactive: -0.255
11,GGAAACCUAUUGUAUACAATT against 9230117N10Rik,inactive: 1.52
12,GGGCCGUUUCCUGAAGAUCTT against Pura,inactive: 0.568
13,GGUGUGGGUUUAACUAUCUTT against Olfr686,inactive: 0.459
14,GGAACCACUUUAUUUGUCATT against Dcamkl1,inactive: 1.06
15,GGAAGAUUCUAGAAAUGUGTT against BC057371,inactive: -0.524
16,CGUAAAGGAACACUCUCGGTT against Eif3s2,inactive: -2.56
17,GGGUUACCGGAAUGUUAUCTT against Tgm2,inactive: 1.35
18,GCCAGUAACGACAAAGACATT against Per3,inactive: -1.33
19,GGAGACUGGAGAGCAAAAUTT against Krt1-18,inactive: -0.338
20,GCACUGAUUACGCUAAUUUTT against Scap2,inactive: 2.58
21,GGCCAGAAGAUCUUCACCATT against Furin,inactive: 0.509
22,GGGCUAGACGAGAAUACUGTT against Bhmt2,inactive: -2.49
23,GGAUAGAGACUGCUGGGUUTT against 1110003A17Rik,inactive: -1.2
24,GGGCUGAUCUUUUUAACUGTT against Tpm3,inactive: 0.317
25,GGAAAGCAUCGAGGAAGACTT against Rbm28,inactive: 0.248
26,GGAUUCAGUGGAAAUCUUUTT against Gja12,inactive: 0.0872

row,Sequence,z-score
1,GCUAUCCGUGCUAGAUAUGTT against Elp3,inactive: 0.554
2,GGAGUUGAGAUCAUGUAGGTT against 1600013P15Rik,inactive: 2.45
3,GGAUAUGAGCGGUAUUUUGTT against Trim34,inactive: 0.941
4,GGAGAUGCGAGUACAACUGTT against A330104H05Rik,inactive: -0.0746
5,GGUUUUACAAAUGAACUUGTT against Cacna2d1,inactive: -0.104
6,CCUAAGACAUGCAACAUGATT against Adam25,inactive: 0.637
7,UUUGGUAUGGCUCUACUAUTT against Olfr523,inactive: 0.192
8,GGAGACACGACUUUAAAAATT against Slco1c1,inactive: 1.22
9,GGACUGAAGAUCAUAUUCATT against Csh2,inactive: 0.521
10,GGAAUAAAGAAUGGUAUACTT against Suhw4,inactive: 0.381
11,CGGCAUCUGUAAGAACGUGTT against Adamts7,inactive: 0.996
12,GCCACGUAGACUGAUAUAGTT against Irf5,inactive: -2.64
13,GGCAAAGGUGCAAGAUACATT against 9130012B15Rik,inactive: 0.304
14,GGACUCCCUGAGAACCUGATT against Coil,inactive: -1.31
15,CGGCCUCAAUUUACAGCUATT against 9130210N20Rik,inactive: -1.16
16,GGAAAGACUUGAUGGUCUGTT against Nap1l1,inactive: -1.15
17,CGGUUCUUCCAUCAAAUGGTT against Prodh,inactive: -0.0133
18,GCAUCCCUUUGAUCGCUACTT against Serpina11,inactive: 0.247
19,GGUGGACUCCUUGACAGAUTT against AI507495,inactive: -0.927
20,CCGAAAGAAAUGGACCCGATT against Pou2f2,inactive: -0.0968
21,GGUCUGCAUCGACUCUGAGTT against Atox1,inactive: -1.1
22,GCUAGACCUAAGGAGCAAATT against Axin1,inactive: 0.057
23,GGUUCUGAACCAGCUGGAGTT against Chd3,inactive: 2.62
24,CGAAAUCUUUUCUAACCACTT against Drd4,inactive: 0.928
25,GCCAAGAGUCAACAUCACATT against Eng,inactive: 0.131
26,GCUUUGGACAAUAAGAAGUTT against Cdkl1,inactive: -0.441

# 6 successive records out of the list so far:
row,Sequence,z-score
20,CCGAAAGAAAUGGACCCGATT against Pou2f2,inactive: -0.0968
21,GGUCUGCAUCGACUCUGAGTT against Atox1,inactive: -1.1
22,GCUAGACCUAAGGAGCAAATT against Axin1,inactive: 0.057
23,GGUUCUGAACCAGCUGGAGTT against Chd3,inactive: 2.62
24,CGAAAUCUUUUCUAACCACTT against Drd4,inactive: 0.928
25,GCCAAGAGUCAACAUCACATT against Eng,inactive: 0.131

# More results.

row,Sequence,z-score
1,CGAGACAAGGUAGAAAGUATT against Spire1,inactive: -1.46
2,CGCCAAACAGGCUAGAUCUTT against Ephb2,inactive: 2.91
3,GCAUACCAGUCUCAUCGCATT against Kpnb3,inactive: -0.78
4,GCCAUGUUCCUUUAUAACATT against Prps1,inactive: 1.24
5,GGAUGUGCUAUCGAAGACATT against RP23-219P13.3,inactive: 0.00481
6,CCAAGAAGAUCUGUACACGTT against 2610528J18Rik,inactive: 0.966
7,GGAGGAGUCUUGAAUCCAGTT against 9930028C20Rik,inactive: 1.77
8,GGAUUCAGGCAGAAGAAAGTT against 3110002L15Rik,inactive: -1.14
9,GGAUACGAUGGAAAUAAUGTT against Nek6,inactive: -1.03
10,GGAAAAUGGAGCUGUGCUCTT against BC019561,inactive: -1.61
11,GGUCAUAGCACCAUGUUCUTT against Gata5,inactive: 0.584
12,GGAGAAACCUGACAUGUCUTT against AA407526,inactive: -2.1
13,GGGUUCAGGAGAACUAACUTT against 9030407H20Rik,inactive: -1.28
14,GGUAAAAGUGGUUCUGUUCTT against Olfr1143,inactive: 0.274
15,ACAGCUCUUCCAACCACCUTT against Rtn4rl2,inactive: -0.536
16,GGUGAAAUCCGUUACUUUGTT against Muted,inactive: -0.538
17,GGGUUAGGUCAUCUAAAUGTT against Ankrd32,inactive: -0.368
18,GGAGGACAAAGAGGCACAGTT against Gip,inactive: 0.802
19,GCGGGAAUGAAGAAACACGTT against Eea1,inactive: -0.557
20,CCAGAUACUCAAUUCUUUGTT against Bcl3,inactive: -0.698
21,GGGAGUUACUAACCACUUCTT against Gja3,inactive: -0.507
22,GCUGAACGACCAAGUGUAATT against Lrrc15,inactive: -1.15
23,GGGCUUUGAUCAGUUCUACTT against Hoxd11,inactive: -0.654
24,GGGAUGCUGUCUUCUGUCATT against G630042G04,inactive: -1.26
25,GGUGGUAUUUGAAGAGACATT against Ddit4l,inactive: 1.44
26,GCAAGUCGAUACUGGGUGATT against T2,inactive: -0.681

# Some of the entries above in a different format.
row | Sequence | z-score
1 | CGAGACAAGGUAGAAAGUATT against Spire1 | inactive: -1.46
9 | GGAUACGAUGGAAAUAAUGTT against Nek6 | inactive: -1.03

# More entries

row,Sequence,z-score
1,GGCCUUCUCUGACUUUCUGTT against D430030K24Rik,active: 3.28
2,GCCUUCUGUUGGUUAAUACTT against Dsipi,inactive: -0.0459
3,CCGCUCACGUGAAAAAGUUTT against 2610024N01Rik,inactive: -0.456
4,GGAAAUCUAAAAGUCCUCCTT against Il17re,inactive: -0.56
5,GGAUACAGAACACAGGAGCTT against A430090L17Rik,inactive: 3.75
6,GGUCAAAGCAUCAAGGUGGTT against Oprl1,inactive: -0.0981
7,GGAACAUUACCAUCAAGCUTT against Eif2s3x,inactive: -2.52
8,GCAUGGAUAUCCUAUUGACTT against Fmo5,inactive: 1.06
9,GGCAGAUUUAGACACCAUATT against Synpr,inactive: 1.12
10,GGGUCACCCAUUAUUUUAUTT against Phyhip,inactive: 0.649
11,GGAAAUCGUAUACAGGGACTT against Prkx,inactive: 0.355
12,CCAAAUUAUUCUUGCUUUCTT against 1500003O03Rik,inactive: 0.953
13,CCUGAGUAUGCCUAUUAUUTT against Snapc1,inactive: -0.0116
14,GGCAAUGGACGCAUCACCUTT against Fn1,inactive: -0.759
15,GCCAAUAAGCGGAAAAGCATT against Zfp609,inactive: -2.02
16,GCGCAGGUUCAAUGUGGAUTT against Prodh,inactive: 0.399
17,GGGUUAUAGCUAUAGGACUTT against Olfr65,inactive: 0.257
18,GCUUCCAAGACCCUAAAGCTT against Dub1a,inactive: 0.847
19,GCUGCUGUUUAAUUGCUGUTT against Olfr807,inactive: -0.341
20,GCGGCUAUCUGUAGUAGGUTT against Map3k2,inactive: 0.0982
21,GGCUCUGGCCAUAUUUUGGTT against Olfr549,inactive: 1.17
22,GGAAUUUGGAGCAAUUGGATT against 4732418C07Rik,inactive: -0.35
23,GCCCUUUCCGUCUGAAAUCTT against Hydin,inactive: 0.887
24,GGAUGUUUUGAAAUCUCGUTT against 5730439E10Rik,inactive: -0.159
25,CGGAUAGCUUACUAAUCUUTT against Gas7,inactive: 1.93
26,CCUGGCAAGGUUACGAAGUTT against Gsta3,inactive: -0.169
